Measurements as given in paper PMC12431657, “Discovery and mechanistic insights of dibenzoylmethane as a broad spectrum inhibitor of coronavirus” (PLOS Pathogens, 2025).
Structures can show the parent of a compound that is named as a salt. Where two headings read alike, the source gives them in different places. The whole screen tested about 3,300 compounds, of which about 95 (3%) showed an effect of 50% or more. Some of the results follow.

System: HCoV-229E
Design: species or system Huh-7; HTS, protection from HCoV-229E induced cell death, luminescent cell viability (CellCounting-Lite 2.0), inhibition rate
Details: 24 h post infection, 1 h compound pre-incubation, 10 µM, inhibitor

SMILES | 229E Inhibition rate [%] | 229E Inhibition rate (229E Inhibition rate, 24 h) [%]
COc1cc(C[C@H]2C(=O)OC[C@@H]2Cc2ccc(OC)c(OC)c2)ccc1O [Arctigenin] | 14.2 | –
C[C@@H]1CC[C@]2(C(=O)O[C@@H]3O[C@H](CO)[C@@H](O)[C@H](O)[C@H]3O)CC[C@]3(C)C(=CC[C@@H]4[C@@]5(C)CC[C@H](O[C@@H]6OC[C@H](O)[C@H](O)[C@H]6O)C(C)(C)[C@@H]5CC[C@]43C)[C@@H]2[C@]1(C)O [Ziyuglycoside I] | 5 | –
CC(=O)O[C@H]1CC[C@]2(C)[C@H]3CC=C4[C@@H]5CC(C)(C)CC[C@]5(C(=O)O)CC[C@@]4(C)[C@]3(C)CC[C@H]2C1(C)C [3-O-Acetyloleanolic acid] | 2.7 | –
COc1ccc(-c2oc3cc(OC)c(OC)c(O)c3c(=O)c2OC)cc1O [Casticin] | 21.3 | –
COc1cc([C@H]2Oc3cc([C@H]4Oc5cc(O)cc(O)c5C(=O)[C@@H]4O)ccc3O[C@@H]2CO)ccc1O [Silibinin] | – | 12.8
COC1=CC(=O)O[C@@H](/C=C/c2ccc3c(c2)OCO3)C1 [Methylsticin] | 37.7 | –
C[C@@H]1O[C@@H](O[C@@H]2[C@@H](O)[C@H](OCCc3ccc(O)c(O)c3)O[C@H](CO[C@@H]3O[C@H](CO)[C@@H](O)[C@H](O)[C@H]3O)[C@H]2OC(=O)/C=C/c2ccc(O)c(O)c2)[C@H](O)[C@H](O)[C@H]1O [Echinacoside] | 3.3 | –
COc1ccc(C(C)=O)c(O)c1 [Paeonol] | 22.7 | –
C[C@H]1CC[C@@]2(OC1)O[C@H]1C[C@H]3[C@@H]4CC[C@@H]5C[C@@H](O[C@@H]6O[C@H](CO)[C@H](O)[C@H](O)[C@H]6O[C@@H]6O[C@H](CO)[C@@H](O)[C@H](O)[C@H]6O)CC[C@]5(C)[C@H]4CC[C@]3(C)[C@H]1[C@@H]2C [Timosaponin AIII] | 1.2 | –
O=C(O)c1ccc(O)cc1 [4-Hydroxybenzoic acid] | 35.4 | –
COc1c(O)cc2c(c1O)[C@@H]1O[C@H](CO)[C@@H](O)[C@H](O)[C@H]1OC2=O [Bergenin] | 7.1 | –
C/C=C(\C)C(=O)O[C@@H]1[C@@H](OC(C)=O)[C@]2(C)[C@H](C(C)=O)CC[C@@]23O[C@]32CC[C@H]3C[C@@H](O[C@H]4C[C@@H](OC)[C@H](O[C@@H]5O[C@H](C)[C@@H](O)[C@@H](OC)[C@H]5O)[C@@H](C)O4)CC[C@]3(C)[C@@H]12 [Tenacissoside G] | 13.2 | –
C=C1CCC[C@]2(C)CC[C@@H](C(C)(C)O)C[C@@H]12 [Beta-Eudesmol] | 19.6 | –
COc1ccc2c(c1OC)CN1CCc3cc4c(cc3C1C2)OCO4 (stereo not shown) [Tetrahydroberberine] | 9 | –
CC(=O)OCc1ccccc1 [Benzyl acetate] | 50.3 | –
COc1ccc2c(c1OC)CC1c3c(cc4c(c3-2)OCO4)CCN1C (stereo not shown) [Crebanine] | 62.7 | –
OC[C@@H](O)[C@H](O)[C@H](O)[C@@H](O)CO [Dulcite] | 15.3 | –
CC1=CC(=O)CC(C)(C)[C@@]1(O)/C=C/C(C)=C\C(=O)O [Abscisic acid] | – | 21.6
Oc1cc(O)c2c(c1)O[C@H](c1ccc(O)c(O)c1)[C@@H](O)C2 [(+)-Catechin hydrate] | – | 6.4
C1CNCCNCCNCCN1 [Cyclen] | 11.2 | –
Cc1cc2nc[nH]c2cc1C [5,6-Dimethyl-1H-benzo[d]imidazole] | 19.9 | –
C=C1CCCc2c(ccc3c2C(=O)C(=O)c2c(C)coc2-3)/C(C)=C/CCc2c1ccc1c2C(=O)C(=O)c2c(C)coc2-1 [Neoprzewaquinone A] | 4.9 | –
Cc1ccc(C(=O)O)cc1C [3,4-Dimethylbenzoic acid] | 23.9 | –
Nc1nc(=O)c2c([nH]1)NCC(CNc1ccc(C(=O)N[C@@H](CCC(=O)O)C(=O)O)cc1)=N2 [Dihydrofolic acid] | 8.2 | –
c1cn[nH]c1 [1H-pyrazole] | 8 | –
COc1ccc(CC(=O)c2ccc(O)cc2O)cc1 [Ononetin] | 12.2 | –
C[N+](C)(C)CC(O)CC(=O)O (racemic) [(±)-Carnitine (chloride)] | 11.9 | –
O=C1C[C@@H](C(=O)O)NC(=O)N1 [L-Dihydroorotic acid] | 10.8 | –

Of the compounds above, these contain nitrogen in an aromatic ring:
SMILES | 229E Inhibition rate [%] | 229E Inhibition rate (229E Inhibition rate, 24 h) [%]
Cc1cc2nc[nH]c2cc1C [5,6-Dimethyl-1H-benzo[d]imidazole] | 19.9 | –
Nc1nc(=O)c2c([nH]1)NCC(CNc1ccc(C(=O)N[C@@H](CCC(=O)O)C(=O)O)cc1)=N2 [Dihydrofolic acid] | 8.2 | –
c1cn[nH]c1 [1H-pyrazole] | 8 | –

Remaining list, next part

SMILES | 229E Inhibition rate [%] | 229E Inhibition rate (229E Inhibition rate, 24 h) [%]
CCC/C=C1\OC(=O)C2=C1CC[C@H](O)[C@H]2O [Senkyunolide I] | 43.1 | –
OC[C@H]1O[C@@H](Oc2cc3c(O)cc(O)cc3[o+]c2-c2ccc(O)c(O)c2)[C@H](O)[C@@H](O)[C@@H]1O [Kuromanin (chloride)] | 8.6 | –
COc1ccc2cc1Oc1ccc(cc1)C[C@H]1c3c(cc4c(c3Oc3cc5c(cc3OC)CCN(C)[C@@H]5C2)OCO4)CCN1C [Cepharanthine] | 3.5 | –
COc1cc(C(O)C(=O)O)ccc1O (stereo not shown) [Vanillylmandelic acid] | 10.9 | –
COc1ccc(CCO[C@@H]2O[C@H](CO[C@@H]3OC[C@H](O)[C@H](O)[C@H]3O)[C@@H](OC(=O)/C=C/c3ccc(O)c(OC)c3)[C@H](O[C@@H]3O[C@@H](C)[C@H](O)[C@@H](O)[C@H]3O)[C@H]2O)cc1O [Angoroside C] | 7.5 | –
CCCCCCCCCCCCCCC(=O)O [Pentadecanoic acid] | 21.1 | –
C[C@@H]1O[C@@H](O[C@H]2[C@H](OC(=O)[C@]34CCC(C)(C)C[C@H]3C3=CC[C@@H]5[C@@]6(C)C[C@H](O)[C@H](O[C@@H]7O[C@H](CO)[C@@H](O)[C@H](O)[C@H]7O)C(CO)(CO)[C@@H]6CC[C@@]5(C)[C@]3(C)C[C@H]4O)OC[C@H](O)[C@@H]2O)[C@H](O)[C@H](O)[C@H]1O[C@@H]1OC[C@@H](O)[C@H](O[C@@H]2OC[C@](O)(CO)[C@H]2O)[C@H]1O [Platycodin D] | 22 | –
O=C(O)C1=CO[C@@H](O[C@@H]2O[C@H](CO)[C@@H](O)[C@H](O)[C@H]2O)[C@H]2[C@@H]1C=C[C@]2(O)CO [Monotropein] | 14.4 | –
C=C[C@H]1CN2CC[C@H]1C[C@@H]2[C@@H](O)c1ccnc2ccc(OC)cc12 [Quinidine hydrochloride monohydrate] | – | 48.6
O=C(O)C[C@@H]1C(=O)O[C@H]2[C@@H]3OC(=O)c4cc(O)c(O)c(O)c4-c4c(cc(O)c(O)c4O)C(=O)OC[C@H]2O[C@@H](OC(=O)c2cc(O)c(O)c(O)c2)[C@@H]3OC(=O)c2cc(O)c(O)c3c2[C@H]1[C@H](O)C(=O)O3 [Chebulagic acid] | 8.8 | –
CCCCC[C@H](O)CC(=O)CCc1ccc(O)c(OC)c1 [[6]-Gingerol] | 52.8 | –
Nc1nc2c(nc(O)n2[C@@H]2O[C@H](CO)[C@@H](O)[C@H]2O)c(=O)[nH]1 [8-Hydroxyguanosine] | 0 | –
CC(=O)c1ccc2c(c1)C=CC(C)(C)O2 [Demethoxyencecalin] | 12.9 | –
CC(=O)CC[C@@H](C)O[C@@H]1O[C@@H](C)[C@H](O)C[C@H]1O [Ascr#2] | 7.4 | –
CC1(C)CC[C@]2(C(=O)O[C@@H]3O[C@H](CO)[C@@H](O)[C@H](O)[C@H]3O)CC[C@]3(C)C(=CC[C@@H]4[C@@]5(C)CC[C@H](O[C@@H]6O[C@H](C(=O)O)[C@@H](O)[C@H](O[C@@H]7OC[C@@H](O)[C@H](O)[C@H]7O)[C@H]6O)C(C)(C)[C@@H]5CC[C@]43C)[C@@H]2C1 [Momordin IIc] | 29.6 | –
O=C1C[C@@H](c2ccc(O[C@@H]3O[C@H](CO)[C@@H](O)[C@H](O)[C@H]3O)cc2)Oc2cc(O[C@@H]3OC[C@](O)(CO)[C@H]3O)ccc21 [Liguiritigenin-7-O-D-apiosyl-4'-O-D-glucoside] | 7.8 | –
O=C(O)Cc1cccnc1 [3-Pyridineacetic acid] | 10.7 | –
CC(=O)c1ccccc1 [Acetophenone] | 31.9 | –
NCCC(=O)O [β-Alanine] | 7.8 | –
CC(=O)Cc1cc(=O)c2c(C)cc(O)c([C@@H]3O[C@H](CO)[C@@H](O)[C@H](O)[C@H]3O)c2o1 [Aloesin] | 45.8 | –
COc1cc2c[n+](C)c3c4cc5c(cc4ccc3c2cc1OC)OCO5 [Nitidine (chloride)] | 3.7 | –
CC1(C)CC[C@]2(C(=O)O)[C@H](O)C[C@]3(C)C(=CC[C@@H]4[C@@]5(C)C[C@H](O)[C@H](O[C@@H]6O[C@H](CO)[C@@H](O)[C@H](O)[C@H]6O)C(CO)(CO)[C@@H]5CC[C@]43C)[C@@H]2C1 [3-O-Beta-D-Glucopyranosylplatycodigenin] | 18.3 | –
O=C(CO)[C@@H](O)[C@H](O)[C@H](O)CO [D-Fructose] | – | 15.6
O=C(/C=C/c1ccc(O)c(O)c1/C=C/c1ccc(O)c(O)c1)O[C@H](Cc1ccc(O)c(O)c1)C(=O)O [Salvianolic acid A] | 17.8 | –
CC(C)=CCC1C(=O)C(C(=O)CC(C)C)=C(O)C(O)(CC=C(C)C)C1=O (stereo not shown) [Humulone] | 9.3 | –
C[C@]1(O)C[C@@H](O)[C@]2(O)C=CO[C@@H](O[C@H]3O[C@H](CO)[C@@H](O)[C@H](O)[C@H]3O)[C@@H]21 [Harpagide] | 6.1 | –
CC(C)=CC[C@@H](OC(=O)C=C(C)C)C1=CC(=O)c2c(O)ccc(O)c2C1=O [β,β-Dimethylacrylshikonin] | 50.2 | –

Single records, as listed above:
`COc1cc2c[n+](C)c3c4cc5c(cc4ccc3c2cc1OC)OCO5` [Nitidine (chloride)] as listed: 229E Inhibition rate [%]: 3.7
`CC(=O)c1ccccc1` [Acetophenone] as listed: 229E Inhibition rate [%]: 31.9
